Among the data in article PMC2483295 are binding values, retold here.

Sequences of proteins named here, by UniProt entry; tags and fusion partners are left off. A change or cut given only in a name is not applied to a line headed by its entry.
UniProt Q8S4Q6: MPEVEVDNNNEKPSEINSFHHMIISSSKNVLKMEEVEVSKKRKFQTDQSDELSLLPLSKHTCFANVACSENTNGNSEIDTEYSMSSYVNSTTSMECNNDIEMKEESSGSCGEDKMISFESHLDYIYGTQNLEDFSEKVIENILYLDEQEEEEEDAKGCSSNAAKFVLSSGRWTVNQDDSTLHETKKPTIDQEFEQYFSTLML

No constants are given. Whether binding was seen depends on the method and setting. A result given as binding can be weak or reduced; the word gives no strength. Where a sequence is shown, tags or fusion partners need not be part of it.

Experiment [1] has as its target T1, phyA-BD (Arabidopsis) (UniProt P14712).
T1 sequence: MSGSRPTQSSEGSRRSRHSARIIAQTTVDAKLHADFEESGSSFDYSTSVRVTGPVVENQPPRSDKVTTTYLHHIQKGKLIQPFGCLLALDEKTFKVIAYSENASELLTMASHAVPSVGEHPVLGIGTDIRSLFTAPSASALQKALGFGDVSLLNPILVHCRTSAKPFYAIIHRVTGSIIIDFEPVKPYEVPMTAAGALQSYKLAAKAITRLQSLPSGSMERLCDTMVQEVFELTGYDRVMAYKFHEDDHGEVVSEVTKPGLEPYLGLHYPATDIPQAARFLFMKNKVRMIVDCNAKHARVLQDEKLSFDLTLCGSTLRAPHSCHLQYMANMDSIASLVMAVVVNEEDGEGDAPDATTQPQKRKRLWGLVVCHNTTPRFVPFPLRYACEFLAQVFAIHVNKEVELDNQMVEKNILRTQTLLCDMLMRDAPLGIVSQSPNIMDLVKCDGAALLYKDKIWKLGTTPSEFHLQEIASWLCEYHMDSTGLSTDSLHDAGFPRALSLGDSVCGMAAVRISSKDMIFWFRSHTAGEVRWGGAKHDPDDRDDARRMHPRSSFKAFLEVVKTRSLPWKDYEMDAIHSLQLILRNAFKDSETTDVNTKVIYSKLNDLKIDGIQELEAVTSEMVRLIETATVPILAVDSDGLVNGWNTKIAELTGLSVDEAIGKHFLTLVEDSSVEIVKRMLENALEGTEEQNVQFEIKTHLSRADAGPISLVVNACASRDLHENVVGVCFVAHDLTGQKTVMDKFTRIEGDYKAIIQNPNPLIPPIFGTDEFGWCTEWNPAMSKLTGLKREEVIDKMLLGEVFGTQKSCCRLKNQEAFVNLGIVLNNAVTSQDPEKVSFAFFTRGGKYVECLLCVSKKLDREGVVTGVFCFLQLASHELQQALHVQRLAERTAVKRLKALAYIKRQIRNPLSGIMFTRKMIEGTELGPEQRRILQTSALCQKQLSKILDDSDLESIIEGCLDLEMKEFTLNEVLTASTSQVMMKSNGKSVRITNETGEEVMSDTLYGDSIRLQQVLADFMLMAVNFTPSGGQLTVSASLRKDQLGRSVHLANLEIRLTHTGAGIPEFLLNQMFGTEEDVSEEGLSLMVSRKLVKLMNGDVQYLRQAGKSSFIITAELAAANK
In words: two-hybrid; yeast Y187, β-galactosidase activity (Miller units); cultures with 10 µM PCB, 5 min red light pulse (12 µmol m^-2 s^-1), then 240 min dark; 5 min far-red pulse given 0, 60, 120 or 240 min after the red pulse.

The target of experiment [2] is T1, phyA-BD (Arabidopsis). In words: two-hybrid; yeast AH109, growth on L-W-H- plates with 1 mM 3-aminotriazole and 10 µM PCB, 3 d in 1 µmol m^-2 s^-1 red light (Pfr) or 13 µmol m^-2 s^-1 far-red light (Pr).

On to AD-FHL (from UniProt A8MR65-2), for which the binding result in experiment [1] is on record as “binds”.
Turning to “FHY1 ΔNLS (yeast two-hybrid fusion) (from UniProt Q8S4Q6)”, the binding entry in experiment [2] is reported as “binds”.
